According to patent publication US7456216B2, “Methods for the preparation and formulation of l-carnitine valproate salts” (BioLink Life Sciences, Inc., priority 2007, dated 2008):
Some results were stated once for a whole list of compounds, not compound by compound.

Assay: Solubility in water or aqueous solutions
Type: physicochemical
Conditions: dissolved in water or aqueous solutions of an alcohol or polyol

Substance: L-carnitine magnesium valproate
- Valproate concentration of clear and colorless aqueous solutions obtained: ≤ 300 mg per milliliter
